From the supplement of paper PMC6411743
± gives the standard deviation of the averaged measurements. The list shows a part of the results, in another mix than the full data.

Sequences of proteins named here, by UniProt entry; tags and fusion partners are left off. A change or cut given only in a name is not applied to a line headed by its entry.
UniProt Q9BV44: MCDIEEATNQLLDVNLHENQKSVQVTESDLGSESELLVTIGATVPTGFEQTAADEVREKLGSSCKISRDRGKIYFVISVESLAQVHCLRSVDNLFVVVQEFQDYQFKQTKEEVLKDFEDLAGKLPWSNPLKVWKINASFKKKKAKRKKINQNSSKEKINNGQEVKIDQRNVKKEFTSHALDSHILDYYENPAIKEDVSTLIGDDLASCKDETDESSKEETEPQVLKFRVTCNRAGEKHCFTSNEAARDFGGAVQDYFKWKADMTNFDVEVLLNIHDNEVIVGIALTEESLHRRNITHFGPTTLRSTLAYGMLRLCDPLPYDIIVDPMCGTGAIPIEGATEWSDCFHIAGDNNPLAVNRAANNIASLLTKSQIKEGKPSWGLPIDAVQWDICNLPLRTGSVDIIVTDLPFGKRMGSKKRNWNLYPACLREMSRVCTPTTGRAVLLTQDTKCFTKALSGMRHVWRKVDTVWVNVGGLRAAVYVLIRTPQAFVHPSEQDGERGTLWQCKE
UniProt Q96S90: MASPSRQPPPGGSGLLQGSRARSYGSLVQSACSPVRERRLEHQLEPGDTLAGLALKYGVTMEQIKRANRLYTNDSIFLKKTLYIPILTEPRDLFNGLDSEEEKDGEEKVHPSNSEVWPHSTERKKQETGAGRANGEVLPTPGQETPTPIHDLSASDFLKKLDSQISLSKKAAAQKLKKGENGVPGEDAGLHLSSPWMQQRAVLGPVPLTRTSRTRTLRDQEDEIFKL
UniProt Q9BTX1: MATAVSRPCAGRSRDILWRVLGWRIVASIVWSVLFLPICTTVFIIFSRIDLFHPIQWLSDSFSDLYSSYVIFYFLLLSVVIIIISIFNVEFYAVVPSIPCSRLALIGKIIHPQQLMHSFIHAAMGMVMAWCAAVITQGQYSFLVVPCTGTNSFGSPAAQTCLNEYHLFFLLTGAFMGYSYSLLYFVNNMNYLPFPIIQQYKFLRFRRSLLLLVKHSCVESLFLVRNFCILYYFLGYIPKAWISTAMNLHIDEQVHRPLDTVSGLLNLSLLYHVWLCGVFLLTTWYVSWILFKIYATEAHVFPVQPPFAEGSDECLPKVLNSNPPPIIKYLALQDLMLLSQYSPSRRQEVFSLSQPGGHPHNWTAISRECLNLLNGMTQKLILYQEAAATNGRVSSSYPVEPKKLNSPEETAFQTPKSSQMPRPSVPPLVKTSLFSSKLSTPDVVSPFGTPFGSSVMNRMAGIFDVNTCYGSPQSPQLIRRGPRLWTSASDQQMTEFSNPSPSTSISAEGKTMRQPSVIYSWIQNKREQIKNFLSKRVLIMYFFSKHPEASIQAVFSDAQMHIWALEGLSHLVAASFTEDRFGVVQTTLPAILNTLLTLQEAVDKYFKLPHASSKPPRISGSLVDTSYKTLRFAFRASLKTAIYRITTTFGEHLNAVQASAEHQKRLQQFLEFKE
UniProt Q9BR76, whole entry: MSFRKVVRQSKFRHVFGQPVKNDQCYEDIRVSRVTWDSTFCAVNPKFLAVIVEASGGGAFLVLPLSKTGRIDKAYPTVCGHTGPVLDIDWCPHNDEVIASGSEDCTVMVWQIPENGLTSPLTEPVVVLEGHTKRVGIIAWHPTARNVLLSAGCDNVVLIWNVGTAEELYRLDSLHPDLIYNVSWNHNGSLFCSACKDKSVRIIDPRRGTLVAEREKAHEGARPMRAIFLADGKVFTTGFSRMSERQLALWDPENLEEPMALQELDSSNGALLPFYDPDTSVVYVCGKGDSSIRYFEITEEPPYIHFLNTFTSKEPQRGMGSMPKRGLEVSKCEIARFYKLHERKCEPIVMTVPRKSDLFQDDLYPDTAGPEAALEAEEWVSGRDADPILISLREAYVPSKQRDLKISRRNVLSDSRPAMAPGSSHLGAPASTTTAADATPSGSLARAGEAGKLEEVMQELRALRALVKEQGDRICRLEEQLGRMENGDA
UniProt Q9BWT3: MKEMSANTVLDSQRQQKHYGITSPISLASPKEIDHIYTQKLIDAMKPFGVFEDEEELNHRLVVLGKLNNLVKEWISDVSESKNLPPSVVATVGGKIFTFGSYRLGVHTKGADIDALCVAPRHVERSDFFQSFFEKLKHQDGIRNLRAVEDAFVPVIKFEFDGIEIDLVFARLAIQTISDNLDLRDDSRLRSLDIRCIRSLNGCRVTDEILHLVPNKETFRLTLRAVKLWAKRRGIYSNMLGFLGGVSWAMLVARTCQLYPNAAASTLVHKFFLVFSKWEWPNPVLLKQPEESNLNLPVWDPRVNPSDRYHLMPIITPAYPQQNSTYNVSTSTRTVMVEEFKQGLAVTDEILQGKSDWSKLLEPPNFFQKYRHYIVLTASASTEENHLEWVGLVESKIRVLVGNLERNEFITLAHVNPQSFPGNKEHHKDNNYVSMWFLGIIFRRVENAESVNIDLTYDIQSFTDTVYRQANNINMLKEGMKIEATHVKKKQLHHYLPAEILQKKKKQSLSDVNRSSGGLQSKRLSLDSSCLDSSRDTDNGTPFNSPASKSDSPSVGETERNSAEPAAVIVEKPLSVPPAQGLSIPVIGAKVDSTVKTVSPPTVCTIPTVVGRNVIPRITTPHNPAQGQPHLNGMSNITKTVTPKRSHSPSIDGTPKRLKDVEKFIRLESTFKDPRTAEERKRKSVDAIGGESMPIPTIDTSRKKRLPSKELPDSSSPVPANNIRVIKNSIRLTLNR
UniProt Q96RP9: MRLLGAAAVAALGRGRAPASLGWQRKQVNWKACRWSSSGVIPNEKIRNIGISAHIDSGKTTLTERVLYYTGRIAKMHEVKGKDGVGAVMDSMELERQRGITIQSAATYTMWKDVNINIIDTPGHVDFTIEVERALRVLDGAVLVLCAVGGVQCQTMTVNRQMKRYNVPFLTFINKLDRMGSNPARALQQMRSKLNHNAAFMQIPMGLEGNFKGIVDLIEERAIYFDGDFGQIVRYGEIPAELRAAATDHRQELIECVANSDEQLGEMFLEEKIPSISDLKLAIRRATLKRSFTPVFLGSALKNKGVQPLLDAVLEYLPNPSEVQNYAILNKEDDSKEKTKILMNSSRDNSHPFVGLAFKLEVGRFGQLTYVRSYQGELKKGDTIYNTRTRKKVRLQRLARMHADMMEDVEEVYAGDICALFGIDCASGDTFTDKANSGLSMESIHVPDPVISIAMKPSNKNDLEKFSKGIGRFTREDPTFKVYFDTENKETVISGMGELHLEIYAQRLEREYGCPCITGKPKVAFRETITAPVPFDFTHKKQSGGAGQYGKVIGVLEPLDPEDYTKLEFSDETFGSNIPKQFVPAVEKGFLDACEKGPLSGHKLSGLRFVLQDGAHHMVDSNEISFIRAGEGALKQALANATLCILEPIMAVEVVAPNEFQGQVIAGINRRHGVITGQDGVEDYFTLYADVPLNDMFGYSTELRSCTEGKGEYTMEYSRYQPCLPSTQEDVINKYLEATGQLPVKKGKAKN
UniProt Q9BUR4: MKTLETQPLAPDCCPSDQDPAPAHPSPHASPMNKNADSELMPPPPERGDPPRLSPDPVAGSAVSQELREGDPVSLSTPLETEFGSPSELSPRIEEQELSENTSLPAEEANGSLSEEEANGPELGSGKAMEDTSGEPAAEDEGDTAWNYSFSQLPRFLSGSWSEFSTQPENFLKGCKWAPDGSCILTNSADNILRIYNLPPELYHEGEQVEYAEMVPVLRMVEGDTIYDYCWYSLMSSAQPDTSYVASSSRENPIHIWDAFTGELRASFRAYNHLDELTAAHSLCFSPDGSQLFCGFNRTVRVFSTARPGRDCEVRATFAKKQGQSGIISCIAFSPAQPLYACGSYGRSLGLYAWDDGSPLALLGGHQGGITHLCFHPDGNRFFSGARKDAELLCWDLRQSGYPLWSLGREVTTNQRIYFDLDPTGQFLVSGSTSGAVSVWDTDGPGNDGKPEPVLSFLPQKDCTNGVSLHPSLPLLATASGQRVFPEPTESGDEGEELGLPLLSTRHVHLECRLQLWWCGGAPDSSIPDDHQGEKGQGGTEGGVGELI
UniProt Q96T51: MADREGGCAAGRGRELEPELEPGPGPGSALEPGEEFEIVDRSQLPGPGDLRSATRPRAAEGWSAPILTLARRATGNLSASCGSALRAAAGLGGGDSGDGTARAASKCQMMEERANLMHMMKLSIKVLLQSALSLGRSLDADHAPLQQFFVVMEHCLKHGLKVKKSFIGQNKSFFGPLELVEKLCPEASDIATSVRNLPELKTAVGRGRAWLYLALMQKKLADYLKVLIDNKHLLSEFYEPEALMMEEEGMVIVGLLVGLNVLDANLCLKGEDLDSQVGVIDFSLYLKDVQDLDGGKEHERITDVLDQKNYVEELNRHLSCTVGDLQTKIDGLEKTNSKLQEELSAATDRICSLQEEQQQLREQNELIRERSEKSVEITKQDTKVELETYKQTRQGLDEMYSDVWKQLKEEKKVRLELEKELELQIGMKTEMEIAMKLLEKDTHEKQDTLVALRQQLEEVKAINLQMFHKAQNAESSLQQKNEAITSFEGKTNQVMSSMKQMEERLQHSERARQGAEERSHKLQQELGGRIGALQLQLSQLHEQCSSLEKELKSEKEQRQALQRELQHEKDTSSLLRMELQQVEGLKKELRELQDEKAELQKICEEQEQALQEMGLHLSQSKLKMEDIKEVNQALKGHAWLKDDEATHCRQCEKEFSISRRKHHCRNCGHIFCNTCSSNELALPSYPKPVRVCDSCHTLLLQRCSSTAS
UniProt Q9BXK5, whole entry: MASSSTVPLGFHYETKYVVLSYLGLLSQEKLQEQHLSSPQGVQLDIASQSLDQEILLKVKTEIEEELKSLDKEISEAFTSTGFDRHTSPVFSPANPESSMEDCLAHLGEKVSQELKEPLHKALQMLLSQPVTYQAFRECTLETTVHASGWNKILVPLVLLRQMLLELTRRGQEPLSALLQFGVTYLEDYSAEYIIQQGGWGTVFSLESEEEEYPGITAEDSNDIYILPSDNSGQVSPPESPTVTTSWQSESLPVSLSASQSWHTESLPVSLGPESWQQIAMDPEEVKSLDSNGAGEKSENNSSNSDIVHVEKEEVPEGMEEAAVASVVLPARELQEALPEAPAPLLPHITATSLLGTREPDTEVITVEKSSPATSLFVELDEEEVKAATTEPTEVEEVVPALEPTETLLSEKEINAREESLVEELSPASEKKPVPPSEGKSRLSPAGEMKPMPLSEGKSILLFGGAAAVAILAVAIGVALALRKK
UniProt Q9BUE6: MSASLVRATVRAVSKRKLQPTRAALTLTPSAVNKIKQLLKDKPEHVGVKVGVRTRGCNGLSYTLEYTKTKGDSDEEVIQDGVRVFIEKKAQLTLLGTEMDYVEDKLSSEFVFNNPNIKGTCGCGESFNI
UniProt Q99081: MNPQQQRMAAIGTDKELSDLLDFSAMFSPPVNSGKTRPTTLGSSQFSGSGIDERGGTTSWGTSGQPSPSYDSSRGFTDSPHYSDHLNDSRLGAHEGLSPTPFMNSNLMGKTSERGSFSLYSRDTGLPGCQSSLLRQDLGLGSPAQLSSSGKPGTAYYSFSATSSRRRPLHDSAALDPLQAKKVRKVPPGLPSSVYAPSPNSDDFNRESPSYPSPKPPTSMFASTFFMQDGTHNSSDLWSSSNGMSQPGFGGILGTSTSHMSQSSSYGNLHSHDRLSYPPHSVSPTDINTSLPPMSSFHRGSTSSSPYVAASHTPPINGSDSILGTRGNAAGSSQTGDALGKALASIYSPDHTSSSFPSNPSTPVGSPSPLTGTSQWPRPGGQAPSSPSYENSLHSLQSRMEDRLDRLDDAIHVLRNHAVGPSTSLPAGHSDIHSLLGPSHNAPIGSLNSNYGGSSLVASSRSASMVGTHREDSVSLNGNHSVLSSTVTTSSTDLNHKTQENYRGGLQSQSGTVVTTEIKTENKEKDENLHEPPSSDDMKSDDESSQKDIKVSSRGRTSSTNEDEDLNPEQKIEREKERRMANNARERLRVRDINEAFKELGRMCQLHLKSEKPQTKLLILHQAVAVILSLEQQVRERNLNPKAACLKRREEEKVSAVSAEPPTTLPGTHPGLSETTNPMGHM
UniProt Q99615: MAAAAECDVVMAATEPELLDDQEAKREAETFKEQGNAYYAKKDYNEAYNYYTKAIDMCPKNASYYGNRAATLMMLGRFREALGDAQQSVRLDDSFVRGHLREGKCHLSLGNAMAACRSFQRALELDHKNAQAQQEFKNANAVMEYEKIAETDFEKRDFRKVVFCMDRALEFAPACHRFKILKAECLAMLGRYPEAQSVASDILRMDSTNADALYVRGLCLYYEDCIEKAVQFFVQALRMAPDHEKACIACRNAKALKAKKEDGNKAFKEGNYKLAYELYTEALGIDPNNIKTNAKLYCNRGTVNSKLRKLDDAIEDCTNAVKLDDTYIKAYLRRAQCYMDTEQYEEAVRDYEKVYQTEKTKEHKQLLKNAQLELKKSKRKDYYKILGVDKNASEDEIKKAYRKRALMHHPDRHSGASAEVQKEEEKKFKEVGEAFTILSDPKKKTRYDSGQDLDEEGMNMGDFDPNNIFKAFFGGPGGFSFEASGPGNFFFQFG

Compound: Nc1ncnc2c1ncn2[C@@H]1O[C@H](COP(=O)(O)OP(=O)(O)NP(=O)(O)O)[C@@H](O)[C@H]1O [adenylyl imidodiphosphate]
Experiment: NP40-soluble protein abundance relative to vehicle (solubility fold change) (ratio); higher = more soluble protein in presence of AMP-PNP
Outline: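 Data come from three independent experiments in which Dounce-homogenised Jurkat crude lysate was treated at eight concentrations from 0.1 to 10 mM. Treatment ran 10 min at room temperature and then 3 min at 37 °C, after which 0.8% NP40 and benzonase were added for 60 min at 4 °C before ultracentrifugation. The supernatant underwent TMT labelling and LC-MS/MS, and vsn-normalised intensities were expressed as fold change against the detergent-processed vehicle in each replicate.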

| Target | NP40-soluble protein abundance (concentration: 1mM) | NP40-soluble protein abundance (concentration: 2mM) | NP40-soluble protein abundance (concentration: 4mM) | NP40-soluble protein abundance (concentration: 6mM) | NP40-soluble protein abundance (concentration: 8mM) | NP40-soluble protein abundance (concentration: 10mM) |
| --- | --- | --- | --- | --- | --- | --- |
| THUMPD3 (UniProt Q9BV44) | 0.962 ± 0.016 | 0.94 ± 0.016 | 0.9468 ± 0.0043 | 0.93 ± 0.018 | 0.912 ± 0.02 | 0.932 ± 0.017 |
| LYSMD1 (UniProt Q96S90) | 1.01 ± 0.013 | 1.06 ± 0.067 | 0.994 ± 0.042 | 0.981 ± 0.025 | 0.993 ± 0.029 | 1.01 ± 0.033 |
| TRMT61B (UniProt Q9BVS5) | 1 ± 0.04 | 0.984 ± 0.051 | 0.991 ± 0.041 | 0.975 ± 0.026 | 1 ± 0.06 | 0.989 ± 0.053 |
| UniProt Q9BTX1 and related entries | 1.02 ± 0.035 | 1.04 ± 0.018 | 1.02 ± 0.04 | 0.993 ± 0.034 | 1.03 ± 0.041 | 1.08 ± 0.085 |
| CORO1B (UniProt Q9BR76) | 1.06 ± 0.034 | 1.06 ± 0.043 | 1.06 ± 0.033 | 1.05 ± 0.045 | 1.06 ± 0.044 | 1.07 ± 0.05 |
| SETD2 (UniProt Q9BYW2) | 1.06 ± 0.038 | 1.11 ± 0.059 | 1.08 ± 0.022 | 1.02 ± 0.042 | 1.02 ± 0.011 | 1.05 ± 0.013 |
| UniProt Q9BWT3 and related entries | 1 ± 0.038 | 1.04 ± 0.045 | 1.05 ± 0.018 | 1.05 ± 0.029 | 1.05 ± 0.05 | 1.08 ± 0.028 |
| UniProt Q96RP9 and related entries | 0.99 ± 0.021 | 0.981 ± 0.031 | 0.989 ± 0.02 | 0.976 ± 0.01 | 0.972 ± 0.022 | 0.949 ± 0.029 |
| UniProt Q9BUR4 | 1.01 ± 0.011 | 1.04 ± 0.015 | 1.04 ± 0.017 | 1.02 ± 0.044 | 1.01 ± 0.0067 | 1.05 ± 0.012 |
| UniProt Q96T51 and related entries | 0.989 ± 0.012 | 1.02 ± 0.02 | 0.9681 ± 0.0061 | 0.954 ± 0.037 | 0.911 ± 0.012 | 0.944 ± 0.043 |
| UniProt Q99707 and related entries | 1.02 ± 0.034 | 0.97 ± 0.071 | 0.989 ± 0.041 | 0.936 ± 0.011 | 0.936 ± 0.012 | 0.932 ± 0.013 |
| BCL2L13 (UniProt Q9BXK5) | 1.02 ± 0.048 | 1.08 ± 0.023 | 1.04 ± 0.06 | 0.987 ± 0.021 | 0.964 ± 0.031 | 0.991 ± 0.032 |
| UniProt Q9BUE6 and related entries | 0.991 ± 0.012 | 0.976 ± 0.033 | 0.968 ± 0.039 | 1.01 ± 0.047 | 1.012 ± 0.0095 | 1.03 ± 0.045 |
| UniProt Q99081 and related entries | 1.026 ± 0.0055 | 1.03 ± 0.031 | 0.979 ± 0.066 | 0.947 ± 0.019 | 0.93 ± 0.022 | 0.956 ± 0.05 |
| DNAJC7 (UniProt Q99615) | 1.02 ± 0.012 | 1.05 ± 0.052 | 1.01 ± 0.015 | 1.03 ± 0.016 | 1.02 ± 0.013 | 1.04 ± 0.024 |

2 entries from above, reformatted:
Target	NP40-soluble protein abundance (concentration: 1mM)	NP40-soluble protein abundance (concentration: 2mM)	NP40-soluble protein abundance (concentration: 4mM)	NP40-soluble protein abundance (concentration: 6mM)	NP40-soluble protein abundance (concentration: 8mM)	NP40-soluble protein abundance (concentration: 10mM)
CORO1B (UniProt Q9BR76)	1.06 ± 0.034	1.06 ± 0.043	1.06 ± 0.033	1.05 ± 0.045	1.06 ± 0.044	1.07 ± 0.05
SETD2 (UniProt Q9BYW2)	1.06 ± 0.038	1.11 ± 0.059	1.08 ± 0.022	1.02 ± 0.042	1.02 ± 0.011	1.05 ± 0.013
